Measured values from patent US20250283871A1, “COMPOSITIONS AND METHODS FOR MODULATING THE INTERACTION BETWEEN SS18-SSX FUSION ONCOPROTEIN AND NUCLEOSOMES” (Dana-Farber Cancer Institute, Inc., priority 2020, published 2025).

Test system: BAF complex subunits and histone proteins
Test: Mass spectrometry proteomics of purified HA-SS18 WT and HA-SS18-SSX1 complexes (Tables 5A-5E)
Parameters: species or system human
Details: HEK-293T
[1] = HA-SS18SSX1_CHR_peptides: protein identified in the HA-SS18-SSX1 purification from solubilized chromatin (CHR)
[2] = HA-SS18SSX1 purification, NE (soluble nuclear extract) fraction, peptides per identified protein
[3] = HA-SS18WT_CHR_peptides: HA-SS18 WT purification from nuclease-treated solubilized chromatin (CHR), label = protein identified
[4] = HA-SS18WT_NE_peptides: HA-SS18 WT complexes purified from nuclear extract (NE), label = protein identified (Gene Symbol)
[5] = HA-SS18SSX1_NE_peptides (Table 5B), HA-SS18-SSX1 BAF complex purification from soluble nuclear extract
[6] = HA-SS18WT_NE_peptides: proteins co-purified with HA-SS18 WT from nuclear extract (NE)
[7] = HA-SS18WT_CHR_peptides: protein identified in HA-SS18 WT BAF complex purification from nuclease-treated solubilized chromatin (CHR)

Row | Molecule | Total (total peptides) [1] | Unique (unique peptides) [1] | Total (total peptides) [2] | Unique (unique peptides) [2] | Total (peptides) [3] | Unique (peptides) [3] | Total (peptides) [4] | Unique (peptides) [4] | Total (peptides) [5] | Unique (peptides) [5] | Total (peptides) [6] | Unique (peptides) [6] | Total (total peptides) [7] | Unique (unique peptides) [7]
1 | PAXBP1 (protein, UniProt Q9Y5B6 1-917, looked up) PAX3- and PAX7-binding …: MFRKARRVNVRKRNDSEEEERERDEEQEPPPLLPPPGTGEEAGPGGGDRAPGGESLLGPGPSPPSALTPGLGAEAGGGFPGGAEPGNGLKPRKRPRENKEVPRASLLSFQDEEEENEEVFKVKKSSYSKKIVKLLKKEYKEDLEKSKIKTELNSSAESEQPLDKTGHVKDTNQEDGVIISEHGEDEMDMESEKEEEKPKTGGAFSNALSSLNVLRPGEIPDAAFIHAARKKRQMARELGDFTPHDNEPGKGRLVREDENDASDDEDDDEKRRIVFSVKEKSQRQKIAEEIGIEGSDDDALVTGEQDEELSRWEQEQIRKGINIPQVQASQPAEVNMYYQNTYQTMPYGSSYGIPYSYTAYGSSDAKSQKTDNTVPFKTPSNEMTPVTIDLVKKQLKDRLDSMKELHKTNRQQHEKHLQSRVDSTRAIERLEGSSGGIGERYKFLQEMRGYVQDLLECFSEKVPLINELESAIHQLYKQRASRLVQRRQDDIKDESSEFSSHSNKALMAPNLDSFGRDRALYQEHAKRRIAEREARRTRRRQAREQTGKMADHLEGLSSDDEETSTDITNFNLEKDRISKESGKVFEDVLESFYSIDCIKSQFEAWRSKYYTSYKDAYIGLCLPKLFNPLIRLQLLTWTPLEAKCRDFENMLWFESLLFYGCEEREQEKDDVDVALLPTIVEKVILPKLTVIAENMWDPFSTTQTSRMVGITLKLINGYPSVVNAENKNTQVYLKALLLRMRRTLDDDVFMPLYPKNVLENKNSGPYLFFQRQFWSSVKLLGNFLQWYGIFSNKTLQELSIDGLLNRYILMAFQNSEYGDDSIKKAQNVINCFPKQWFMNLKGERTISQLENFCRYLVHLADTIYRNSIGCSDVEKRNARENIKQIVKLLASVRALDHAMSVASDHNVKEFKSLIEGK | 9 | 8 | 12 | 12 | 6 | 6 | 10 | 9 | – | – | – | – | – | –
2 | UTP18 (protein, UniProt Q9Y5J1 1-556, looked up) U3 small nucleolar …: MPPERRRRMKLDRRTGAKPKRKPGMRPDWKAGAGPGGPPQKPAPSSQRKPPARPSAAAAAIAVAAAEEERRLRQRNRLRLEEDKPAVERCLEELVFGDVENDEDALLRRLRGPRVQEHEDSGDSEVENEAKGNFPPQKKPVWVDEEDEDEEMVDMMNNRFRKDMMKNASESKLSKDNLKKRLKEEFQHAMGGVPAWAETTKRKTSSDDESEEDEDDLLQRTGNFISTSTSLPRGILKMKNCQHANAERPTVARISSVQFHPGAQIVMVAGLDNAVSLFQVDGKTNPKIQSIYLERFPIFKACFSANGEEVLATSTHSKVLYVYDMLAGKLIPVHQVRGLKEKIVRSFEVSPDGSFLLINGIAGYLHLLAMKTKELIGSMKINGRVAASTFSSDSKKVYASSGDGEVYVWDVNSRKCLNRFVDEGSLYGLSIATSRNGQYVACGSNCGVVNIYNQDSCLQETNPKPIKAIMNLVTGVTSLTFNPTTEILAIASEKMKEAVRLVHLPSCTVFSNFPVIKNKNISHVHTMDFSPRSGYFALGNEKGKALMYRLHHYSDF | 9 | 8 | – | – | 5 | 4 | – | – | 1 | 1 | 2 | 2 | – | –
3 | HNRNPA2B1 (protein, UniProt P22626 1-353, looked up) Heterogeneous nuclear …: MEKTLETVPLERKKREKEQFRKLFIGGLSFETTEESLRNYYEQWGKLTDCVVMRDPASKRSRGFGFVTFSSMAEVDAAMAARPHSIDGRVVEPKRAVAREESGKPGAHVTVKKLFVGGIKEDTEEHHLRDYFEEYGKIDTIEIITDRQSGKKRGFGFVTFDDHDPVDKIVLQKYHTINGHNAEVRKALSRQEMQEVQSSRSGRGGNFGFGDSRGGGGNFGPGPGSNFRGGSDGYGSGRGFGDGYNGYGGGPGGGNFGGSPGYGGGRGGYGGGGPGYGNQGGGYGGGYDNYGGGNYGSGNYNDFGNYNQQPSNYGPMKSGNFGGSRNMGGPYGGGNYGPGGSGGSGGYGGRSRY | 9 | 8 | – | – | – | – | – | – | – | – | – | – | – | –
4 | NOL10 (protein, UniProt Q9BSC4 1-688, looked up) Nucleolar protein 10: MQVSSLNEVKIYSLSCGKSLPEWLSDRKKRALQKKDVDVRRRIELIQDFEMPTVCTTIKVSKDGQYILATGTYKPRVRCYDTYQLSLKFERCLDSEVVTFEILSDDYSKIVFLHNDRYIEFHSQSGFYYKTRIPKFGRDFSYHYPSCDLYFVGASSEVYRLNLEQGRYLNPLQTDAAENNVCDINSVHGLFATGTIEGRVECWDPRTRNRVGLLDCALNSVTADSEINSLPTISALKFNGALTMAVGTTTGQVLLYDLRSDKPLLVKDHQYGLPIKSVHFQDSLDLILSADSRIVKMWNKNSGKIFTSLEPEHDLNDVCLYPNSGMLLTANETPKMGIYYIPVLGPAPRWCSFLDNLTEELEENPESTVYDDYKFVTKKDLENLGLTHLIGSPFLRAYMHGFFMDIRLYHKVKLMVNPFAYEEYRKDKIRQKIEETRAQRVQLKKLPKVNKELALKLIEEEEEKQKSTWKKKVKSLPNILTDDRFKVMFENPDFQVDEESEEFRLLNPLVSKISEKRKKKLRLLEQQELREKEEEEEPEGKPSDAESSESSDDEKAWVEEVRKQRRLLQQEEKVKRQERLKEDQQTVLKPQFYEIKAGEEFRSFKDSATKQKLMNKTLEDRLKIEAKNGTLSVSDTTVGSKQLTFTLKRSEQQKKQQEAEKLHRQERKRLRRSAGHLKSRHKRGRSFH | 9 | 9 | – | – | 5 | 5 | – | – | – | – | – | – | – | –
5 | SLC25A6 (protein, UniProt P12236 1-298, looked up) ADP/ATP translocase 3: MTEQAISFAKDFLAGGIAAAISKTAVAPIERVKLLLQVQHASKQIAADKQYKGIVDCIVRIPKEQGVLSFWRGNLANVIRYFPTQALNFAFKDKYKQIFLGGVDKHTQFWRYFAGNLASGGAAGATSLCFVYPLDFARTRLAADVGKSGTEREFRGLGDCLVKITKSDGIRGLYQGFSVSVQGIIIYRAAYFGVYDTAKGMLPDPKNTHIVVSWMIAQTVTAVAGVVSYPFDTVRRRMMMQSGRKGADIMYTGTVDCWRKIFRDEGGKAFFKGAWSNVLRGMGGAFVLVLYDELKKVI | 9 | 8 | 31 | 14 | – | – | 41 | 13 | – | – | – | – | 1 | 1
6 | WDR46 (protein, UniProt O15213 1-610, looked up) WD repeat-containing protein …: METAPKPGKDVPPKKDKLQTKRKKPRRYWEEETVPTTAGASPGPPRNKKNRELRPQRPKNAYILKKSRISKKPQVPKKPREWKNPESQRGLSGTQDPFPGPAPVPVEVVQKFCRIDKSRKLPHSKAKTRSRLEVAEAEEEETSIKAARSELLLAEEPGFLEGEDGEDTAKICQADIVEAVDIASAAKHFDLNLRQFGPYRLNYSRTGRHLAFGGRRGHVAALDWVTKKLMCEINVMEAVRDIRFLHSEALLAVAQNRWLHIYDNQGIELHCIRRCDRVTRLEFLPFHFLLATASETGFLTYLDVSVGKIVAALNARAGRLDVMSQNPYNAVIHLGHSNGTVSLWSPAMKEPLAKILCHRGGVRAVAVDSTGTYMATSGLDHQLKIFDLRGTYQPLSTRTLPHGAGHLAFSQRGLLVAGMGDVVNIWAGQGKASPPSLEQPYLTHRLSGPVHGLQFCPFEDVLGVGHTGGITSMLVPGAGEPNFDGLESNPYRSRKQRQEWEVKALLEKVPAELICLDPRALAEVDVISLEQGKKEQIERLGYDPQAKAPFQPKPKQKGRSSTASLVKRKRKVMDEEHRDKVRQSLQQQHHKEAKAKPTGARPSALDRFVR | 8 | 8 | – | – | 3 | 3 | – | – | – | – | – | – | – | –
7 | TEX10 (protein, UniProt Q9NXF1 1-929, looked up) Testis-expressed protein 10: MTKKRKRQHDFQKVKLKVGKKKPKLQNATPTNFKTKTIHLPEQLKEDGTLPTNNRKLNIKDLLSQMHHYNAGVKQSALLGLKDLLSQYPFIIDAHLSNILSEVTAVFTDKDANVRLAAVQLLQFLAPKIRAEQISPFFPLVSAHLSSAMTHITEGIQEDSLKVLDILLEQYPALITGRSSILLKNFVELISHQQLSKGLINRDRSQSWILSVNPNRRLTSQQWRLKVLVRLSKFLQALADGSSRLRESEGLQEQKENPHATSNSIFINWKEHANDQQHIQVYENGGSQPNVSSQFRLRYLVGGLSGVDEGLSSTENLKGFIEIIIPLLIECWVEAVPPQLATPVGNGIEREPLQVMQQVLNIISLLWKLSKQQDETHKLESWLRKNYLIDFKHHFMSRFPYVLKEITKHKRKEPNKSIKHCTVLSNNIDHLLLNLTLSDIMVSLANASTLQKDCSWIEMIRKFVTETLEDGSRLNSKQLNRLLGVSWRLMQIQPNREDTETLIKAVYTLYQQRGLILPVRTLLLKFFSKIYQTEELRSCRFRYRSKVLSRWLAGLPLQLAHLGSRNPELSTQLIDIIHTAAARANKELLKSLQATALRIYDPQEGAVVVLPADSQQRLVQLVYFLPSLPADLLSRLSRCCIMGRLSSSLAAMLIGILHMRSSFSGWKYSAKDWLMSDVDYFSFLFSTLTGFSKEELTWLQSLRGVPHVIQTQLSPVLLYLTDLDQFLHHWDVTEAVFHSLLVIPARSQNFDILQSAISKHLVGLTVIPDSTAGCVFGVICKLLDHTCVVSETLLPFLASCCYSLLYFLLTIEKGEAEHLRKRDKLWGVCVSILALLPRVLRLMLQSLRVNRVGPEELPVVGQLLRLLLQHAPLRTHMLTNAILVQQIIKNITTLKSGSVQEQWLTDLHYCFNVYITGHPQGPSALATVY | 8 | 8 | 4 | 4 | 5 | 5 | 3 | 3 | – | – | – | – | – | –
